From the supplement of paper PMC5949888
Most values lie at the floor of the assay. Slopes are relative: functional sequences can read slightly below zero.

What follows are substances tested on Saccharomyces cerevisiae PS128 hsf1 delta, HSF1(1-493) fusion (assay: growth estimate (transactivation domain function in HSF1 fusion, heat-shock survival) (a.u. (slope of normalised read count over time)); higher = stronger growth at 37°C, i.e. more transactivation activity). Conditions: library: random library.
Experimental: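 Random 60-nt DNA library encoding peptides of up to 20 aa, fused to the C-terminus of yeast HSF1 residues 1-493 (C-terminal TAD deleted) and expressed from the native HSF1 promoter on a CEN plasmid in hsf1-deleted S. cerevisiae PS128. Cells were selected at 37°C on -trp 5-FOA plates for 0, 2, 4, 6 and 8 days and amplicons were sequenced. Growth estimate is the slope of a robust linear fit of total-sum-normalised read counts (normalised to the first time point) over time, using at least 2 replicates. Sequences are classed functional (TAD activity) above a threshold of -0.13, set from stop-codon control sequences.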

Row | Substance | growth estimate
1 | GLCDQCRRQFEALGWDAL | -0.245
2 | GLCKQLRTISVYNNHAFTPN | < -0.25
3 | GLDWGRRLVAGARSRLTLQP | < -0.25
4 | GLEVLNCEGWSSCG | < -0.25
5 | GLEYLDSCGWEGIR | < -0.25
6 | GLFLRGNM | < -0.25
7 | GLGI | < -0.25
8 | GLGLSD | < -0.25
9 | GLGMSAFSLGHGLYAGGFSA | < -0.25
10 | GLGMVRL | -0.245
11 | GLGPAGTIDERMFRMEHLGW | < -0.25
12 | GLGPNSILKAADVTSPPVLR | < -0.25
13 | GLGSCT | < -0.25
14 | GLH | < -0.25
15 | GLHGGCDGPRHRDIREQRPV | < -0.25
16 | GLHKREGGSLVIPLADVAWM | < -0.25
17 | GLHWSRRGFAGQGDRLSDTR | < -0.25
18 | GLIHGHDRTSGGGDVSGSHA | < -0.25
19 | GLILLSQPRKFCLEPKGGRP | < -0.25
20 | GLKCSLESREA | < -0.25
21 | GLKDTAGSSSVSMQAQARPK | < -0.25
22 | GLKPCRTPPHHSFNGQTSTR | 0.0206
23 | GLKSLRE | < -0.25
24 | GLKTRR | < -0.25

Retrieved one by one from above:
Row | Substance | growth estimate
21 | GLKDTAGSSSVSMQAQARPK | < -0.25
14 | GLH | < -0.25
7 | GLGI | < -0.25
5 | GLEYLDSCGWEGIR | < -0.25
20 | GLKCSLESREA | < -0.25

(further entries)

Row | Substance | growth estimate
25 | GLKVKPVI | < -0.25
26 | GLLESKFNSTLPSPFWSGVN | < -0.25
27 | GLLG | < -0.25
28 | GLLSRQERGSNINGY | -0.245
29 | GLLVSIRGRIPVGSLSPVGT | < -0.25
30 | GLMEGSSALGLKAMQ | < -0.25
31 | GLNGRVKLEGPAS | < -0.25
32 | GLNPLAQNRDIVNVVMDEGA | < -0.25
33 | GLNRKLCWGVHRCVLNNFPA | < -0.25
34 | GLPCTRPKGVACGARQFKYI | < -0.25
35 | GLPFSQGRL | < -0.25
36 | GLPPVSGRRLINSMRP | < -0.25
37 | GLPTIGFYG | < -0.25
38 | GLQ | < -0.25
39 | GLQGGSGRISICGGTPCNPK | < -0.25
40 | GLQGRPKCLG | < -0.25
41 | GLQSPRRSYRDDTLHWVDDV | -0.246
42 | GLQVTRQTTSVLEAVSSL | < -0.25
43 | GLRAGMVPH | < -0.25
44 | GLRCSVPGTGSGLSVEGHGS | < -0.25
45 | GLRDQELGRRKDSRPYMA | 0.0616
46 | GLRERYQLAFSADSTQMASS | < -0.25
47 | GLRGENGTS | < -0.25
48 | GLRLLTRYAPHLHSRLG | < -0.25

Row | Substance | growth estimate
49 | GLRMV | < -0.25
50 | GLRPVRKPFDICKLWASSTS | < -0.25
51 | GLRRCRRSSDNRVMALRIAG | < -0.25
52 | GLRSSGAICPTSGLSDGPPV | < -0.25
53 | GLRVEA | -0.243
54 | GLSAEHRLGHVSPFVADTVR | < -0.25
55 | GLSEIVYRASRRTSTYLAPT | < -0.25
56 | GLSFRLSSSSNPAGGGFCCE | < -0.25
57 | GLSRKSYMSIALREGLRIVL | < -0.25
58 | GLSTNLLNGTKGCKSGGTVV | < -0.25
59 | GLSV | < -0.25
60 | GLSVGGVLIR | < -0.25
61 | GLTAVSGVSARAPPLLFNRL | < -0.25
62 | GLTLRTFLLPQERVLLQFLT | < -0.25
63 | GLVEVSRSPDAGDLGVG | < -0.25
64 | GLVHSHLPR | < -0.25
65 | GLVRLSACSNC | < -0.25
66 | GLVRRRTPVLAVYGAILITL | < -0.25
67 | GLVRWHQLQDKGPNPNS | < -0.25
68 | GLVT | < -0.253
69 | GLWEHLKLVGRR | < -0.25
70 | GLWFGQRPQRLIRGETGRSA | < -0.25
71 | GLWFRAPIVDPSLSVWLRFR | < -0.25
72 | GLWVTRFS | < -0.25

Row | Substance | growth estimate
73 | GLYRH | < -0.25
74 | GMASSWLCPTSDRQW | < -0.25
75 | GMDATMSHAGEYEQP | < -0.25
76 | GMGTDRLGVRDTSLETRSRG | < -0.25
77 | GMHGQACFLNRRPGCCLRPP | < -0.25
78 | GMII | < -0.25
79 | GMIVYIWTTGGTSGLIRKAI | < -0.25
80 | GMLFTFHARDINYCTFRLGF | < -0.25
81 | GMLQIDEIKLCLRCARGIVL | < -0.25
82 | GMN | < -0.25
83 | GMPRPQFLSSARDSKLPVRA | < -0.25
84 | GMQLKADHWHGLITF | < -0.25
85 | GMQLRVCGGTSVSA | -0.239
86 | GMRAPSTLGKQGRCKKLWRA | < -0.25
87 | GMRDLRFESRGVHYVTTWGL | < -0.25
88 | GMRSFAQRRLLLGRLRPPLL | < -0.25
89 | GMS | < -0.25
90 | GMSRTVQINDWNVGPRSK | < -0.25
91 | GMTCLLYRNAGGLESASIRA | < -0.25
92 | GMVPDEPSSGVPRSEILVLD | < -0.25
93 | GMVTMNYGDL | < -0.25
94 | GNAPSCLLMLFSSSDRY | < -0.25
95 | GNE | < -0.25
96 | GNGVGGSPFIGNLAVILMSS | < -0.25

Row | Substance | growth estimate
97 | GNHERSVCWGLEEDS | < -0.25
98 | GNHRQVPTRVSKCAGLSGGL | < -0.25
99 | GNIPDLRGSIFVPHDRSEHA | < -0.25
100 | GNKRCERLEPGTSGIRDI | < -0.25
101 | GNNLVCMERKTFALDQAESH | < -0.25
102 | GNPSIPHGVSVAARFELNAV | < -0.25
103 | GNQSVAVRSLALGIVTWSEG | < -0.25
104 | GNREDPSDGVM | < -0.25
105 | GNRL | < -0.25
106 | GNRLVDSA | < -0.25
107 | GNRLYLE | < -0.25
108 | GNRRFQHQE | < -0.25
109 | GNRVRVLKVISSAFWPSFVS | < -0.25
110 | GNSAVQASNRSAAQSSGTAL | < -0.25
111 | GNTLGKWAAVMKARARTC | < -0.25
112 | GNVGWKLGHAYGKRCRTLDC | < -0.25
113 | GNVKVTHG | < -0.25
114 | GNVRNSLS | < -0.25
115 | GNYYRFKRLLHQIWRPIHCT | < -0.25
116 | GPAEKVSAGLIVSG | < -0.25
117 | GPAGANWSWKVGHRPTLPPR | < -0.25
118 | GPALLSIASRKGFFCVVQVV | < -0.25
119 | GPATKGEEGRVLHTFDNSTG | < -0.25
120 | GPCPQLKLSSGPVLRQAYGA | < -0.25

4 entries from above in a different format:
GNRRFQHQE
  growth estimate = < -0.25
GNRVRVLKVISSAFWPSFVS
  growth estimate = < -0.25
GNSAVQASNRSAAQSSGTAL
  growth estimate = < -0.25
GNTLGKWAAVMKARARTC
  growth estimate = < -0.25

Further entries follow:

Row | Substance | growth estimate
121 | GPCVDPGATRLRL | < -0.25
122 | GPCWASKRLTNVAMISLWVR | < -0.25
123 | GPEESIVLFRT | < -0.25
124 | GPFDLRPAEKQ | < -0.25
125 | GPFG | < -0.25
126 | GPGGWCLAASVMDLRFSPPE | < -0.25
127 | GPGHYRMVPCASSKYAAVQT | < -0.25
128 | GPGLWSGYSAIQIPRDEFRD | -0.159
129 | GPGRCYTSVRSPYDRQALFW | < -0.25
130 | GPGTGICFGYHAGLLPDE | < -0.25
131 | GPGVEYGPCIFVSGVNLSPG | < -0.25
132 | GPHCLTFGRRPLGHPSLESD | < -0.25
133 | GPHHRINKSAYSE | < -0.25
134 | GPKPSGEGMKSAGIAVSLES | < -0.25
135 | GPKRASMGGSGGVLRYDTRV | < -0.25
136 | GPKVKYNGGVGSDAPWGGRP | < -0.25
137 | GPLAC | < -0.25
138 | GPLILP | < -0.25
139 | GPLITRSPAVCAGPRCTVIS | < -0.25
140 | GPLKRNLSSGSMTGAVRKHR | < -0.25
141 | GPLP | < -0.25
142 | GPLPLPYQRISFI | < -0.25
143 | GPLRVTQVIPRSFVRGIHQP | < -0.25
144 | GPPGLRRLLLYDPTWRTHPH | < -0.25

Row | Substance | growth estimate
145 | GPPGWFRIPPSLGSQSRRIF | < -0.25
146 | GPPYTDRLATYPQCRLSVGP | < -0.253
147 | GPQVSRPIG | < -0.25
148 | GPRGRHILEGS | < -0.25
149 | GPRLSRSCNFESGPGHKLIF | < -0.25
150 | GPRPRVAAIAGQEPYIRIRQ | < -0.25
151 | GPRVV | < -0.25
152 | GPSPRIGRPFWSMCVLIY | < -0.25
153 | GPTCVDSSTVDNVLWQSRVV | < -0.25
154 | GPTLLTSHKEENVCVRRSHA | < -0.25
155 | GPVGTSL | < -0.25
156 | GPVLSPGAEKTVCGATTFTY | < -0.25
157 | GPVSGGSPRGFVS | < -0.25
158 | GPYLVFL | < -0.25
159 | GQASSLTIS | < -0.25
160 | GQATHRRSD | < -0.25
161 | GQATWLFRSNGSRGSSVSAP | < -0.25
162 | GQCESDADYCWLRVR | < -0.25
163 | GQDIQVDILGRPEFIHAAFD | < -0.25
164 | GQEFINGLRSEIWMEPSASR | < -0.25
165 | GQERSYVCDARRIGGQVGHH | < -0.25
166 | GQETRTREVWRIKDSINRLR | < -0.25
167 | GQFILKNGM | < -0.25
168 | GQFLDRRTDAARKEQSRDSP | < -0.25

Row | Substance | growth estimate
169 | GQIVVGHRGTAVAVESVHVI | < -0.25
170 | GQKFRMIDGLPNAACDRTPV | < -0.25
171 | GQLVPKEIVSRSANVRIPED | -0.182
172 | GQLVSRVCIRRQPKTSQPHC | < -0.25
173 | GQN | < -0.25
174 | GQPRRVVEVVWPSQHAIKTT | < -0.25
175 | GQRGILDEGTAYEGAGE | < -0.25
176 | GQRGKPQRNIAGL | < -0.253
177 | GQRSRRTPPLVYI | < -0.25
178 | GQTWRASTRRGLRPRNLESG | < -0.25
179 | GQW | < -0.25
180 | GQWEESRQMETSTKDYKTV | < -0.25
181 | GQWGIKSRLKSRY | < -0.25
182 | GQYGYGDVSDGVPLHRSRCE | < -0.25
183 | GQYHYDTLGSRRGRWGIFWA | < -0.25
184 | GQYLLVV | < -0.25
185 | GRAGFDR | < -0.25
186 | GRAGSASAIGSPAYAS | < -0.25
187 | GRAPCI | < -0.25

An excerpt of these results, comma-delimited.
Row,Substance,growth estimate
170,GQKFRMIDGLPNAACDRTPV,< -0.25
176,GQRGKPQRNIAGL,< -0.253
180,GQWEESRQMETSTKDYKTV,< -0.25
185,GRAGFDR,< -0.25
186,GRAGSASAIGSPAYAS,< -0.25
187,GRAPCI,< -0.25
